Reference: PubChem BioAssay AID1224826 (NIAID, 2016)

Assay: 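Genes that change LPS-induced Tnf promoter activity in mouse macrophages when knocked down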 (primary screen)
Cell system: RAW264.7 G9 macrophages from mouse bearing reporters for p65 (GFP) and the Tnf promoter (mCherry)
Reagent: siRNA pool against mouse genes, 100 nM
Timing: 16 h of LPS stimulation, after 2 days of siRNA transfection
Treatment: bacterial lipopolysaccharide (Salmonella minnesota R595), 10 ng/ml
Read-out: 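Nuclear mCherry signal of the Tnf promoter reporter measured by imaging after background removal, scaled to each plate median and turned into robust z-scores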
Direction: Tnf reporter robust z-score: higher = stronger Tnf promoter reporter signal after LPS; Tnf reporter intensity: higher = stronger Tnf promoter reporter signal
Call rule: 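a well counts as active at a score of -1.3 or below (Tlr4 knock-down control median) or above 3 (raised signal); controls and wells holding fewer than 50 cells are excluded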
Meaning of the calls: active = Tnf reporter clearly lowered or raised; inactive = no clear change in Tnf reporter
Here is an unselected part of about 17,000 reagents tested. In the full data, about 1,110 (6.6%) are marked active. 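Active means lowered or raised reporter signal; replicate intensities are raw and not normalised per plate.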 Entries without a mark were called inactive.

| target | PubChem SID | Tnf reporter robust z-score | fewer than 50 cells in well | Tnf reporter intensity, replicate 1 | Tnf reporter intensity, replicate 2 |
| --- | --- | --- | --- | --- | --- |
| Cdhr5 | SID315474429 | -0.56 | enough cells in well | 175 | 90.8 |
| Nid2 | SID315468175 | -1.24 | enough cells in well | 126 | 117 |
| Exoc7 | SID315471064 | – | fewer than 50 cells per well; well left out of calls | 84.2 | 62.9 |
| Prrt1 | SID315480729 | – | fewer than 50 cells per well; well left out of calls | 131 | 52.8 |
| Vmn1r220 | SID315477346 | 1.95 | enough cells in well | 157 | 181 |
| Thpo | SID315469710 | 0.85 | enough cells in well | 255 | 201 |
| Mcm10 | SID315473959 | -1.15 | enough cells in well | 171 | 43.9 |
| Mboat2 | SID315472904 | – | fewer than 50 cells per well; well left out of calls | 208 | 61.4 |
| Man2a2 | SID315477114 | 3.31 (active) | enough cells in well | 313 | 384 |
| Prss22 | SID315474144 | -0.37 | enough cells in well | 120 | 107 |
| Phf11d | SID315478239 | -0.86 | enough cells in well | 149 | 107 |
| Akr1b7 | SID315465582 | -0.93 | enough cells in well | 155 | 116 |
| Clstn3 | SID315478982 | -0.51 | enough cells in well | 167 | 208 |

Records above with an active call, once more:
| target | PubChem SID | Tnf reporter robust z-score | fewer than 50 cells in well | Tnf reporter intensity, replicate 1 | Tnf reporter intensity, replicate 2 |
| --- | --- | --- | --- | --- | --- |
| Man2a2 | SID315477114 | 3.31 (active) | enough cells in well | 313 | 384 |

Additional results follow:
| target | PubChem SID | Tnf reporter robust z-score | fewer than 50 cells in well | Tnf reporter intensity, replicate 1 | Tnf reporter intensity, replicate 2 |
| --- | --- | --- | --- | --- | --- |
| Comtd1 | SID315473738 | -0.35 | enough cells in well | 168 | 151 |
| Nos1 | SID315468207 | -0.31 | enough cells in well | 209 | 169 |
| Gar1 | SID315473427 | -0.84 | enough cells in well | 167 | 80.7 |
| Atp1b3 | SID315465547 | -1.49 (active) | enough cells in well | 87.5 | 79.4 |
| Styxl1 | SID315475342 | 1.25 | enough cells in well | 215 | 235 |
| Ogfr | SID315474444 | 2.02 | enough cells in well | 408 | 215 |
| Tmbim7 | SID315475067 | – | fewer than 50 cells per well; well left out of calls | 171 | 58.3 |
| Pacsin2 | SID315470265 | – | fewer than 50 cells per well; well left out of calls | 43.2 | 43.6 |
| Evc2 | SID315473557 | -0.3 | enough cells in well | 206 | 207 |
| Tcstv1a | SID315471215 | 0.25 | enough cells in well | 130 | 99 |
| Hacd2 | SID315474121 | 0.13 | enough cells in well | 256 | 201 |
